Measured values published in PubChem BioAssay AID1259415 (National Center for Advancing Translational Sciences (NCATS), 2018).
Among all 410,000 compounds or so, about 18,000 (4.4%) were called active. The shares of active, inactive and inconclusive entries below differ from those in the screen. Rule as the data show it: active = activity change below about -60%; inconclusive = no clear call, values can overlap the other calls; inactive = above about -39%.

Assay: qHTS Assay for inhibitors of the human cytomegalovirus (HCMV)
Settings: HFF cells, HCMV-luciferase reporter, 72 h; at 57.5 µM; hits give low values
Outline: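 Compounds were evaluated in HFFs infected with an HCMV luciferase reporter virus (MOI 1 PFU/cell). Luciferase in lysates collected 72 h post infection served as the replication measure.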
% is scaled to controls: 0 for no effect and ±100 for the full control effect.

Which activity change, negative = inhibition does the source give for `Cc1oc(C(C)(C)C)cc1C(=O)NC(Cc1ccccc1)C(=O)O` (stereo not given) here?
Its activity change, negative = inhibition is active: -77.2%.

Which activity change, negative = inhibition does the source give for `CCc1cccc(NC(=O)Nc2ccc3c(c2)N(C)C(=O)c2ccccc2S3)c1` here?
Its activity change, negative = inhibition is inconclusive: -50.6%.

For `Cc1nc2ccccc2c(=O)n1NC(=O)c1c(F)cccc1F`, which activity change, negative = inhibition is on record?
The activity change, negative = inhibition was active: -68.7%.

With `Cc1cc(C)n(-c2ccc(C(=O)Nc3cccc([N+](=O)[O-])c3)cc2)n1` as the compound, how does the activity change, negative = inhibition read?
Its activity change, negative = inhibition is inconclusive: -59.2%.

Which activity change, negative = inhibition does the source give for `Cc1ccc(-n2ncc3c(N4CCCCCC4)ncnc32)cc1` here?
The activity change, negative = inhibition was active: -99.2%.

Which activity change, negative = inhibition does the source give for `CN(c1ccccc1)S(=O)(=O)c1cccc(C(=O)NCc2ccccc2)c1` here?
Its activity change, negative = inhibition is inactive: -38.5%.

Which activity change, negative = inhibition does the source give for `Cc1csc(NC(=O)C2CCN(S(=O)(=O)c3cccs3)CC2)n1` here?
The activity change, negative = inhibition was inconclusive: -59.8%.

With `CCCCN(C(=O)C1CCCO1)c1c(N)n(CC(C)C)c(=O)[nH]c1=O` (stereo not given) as the compound, how does the activity change, negative = inhibition read?
The activity change, negative = inhibition was inactive: -34.5%.

For `CCOc1nc(C)cc(C)c1S(=O)(=O)c1ccc(Cl)cc1`, which activity change, negative = inhibition is on record?
The activity change, negative = inhibition was inconclusive: -45.3%.

With `O=C(NCC(F)(F)F)c1nn(Cc2ccccc2)c(=O)c2ccccc12` as the compound, how does the activity change, negative = inhibition read?
Its activity change, negative = inhibition is inconclusive: -41.7%.

For `COc1ccc(CCN=C(N)NS(=O)(=O)c2ccc3ccccc3c2)cc1`, which activity change, negative = inhibition is on record?
Its activity change, negative = inhibition is inconclusive: -50.8%.

Which activity change, negative = inhibition does the source give for `Cn1nc(-c2ccccc2)cc1NC(=O)c1ccc(Cl)cc1` here?
The activity change, negative = inhibition was inconclusive: -59.3%.

For `COc1ccc(-c2noc(N3CCC(C(=O)NC(C)c4ccccc4)CC3)n2)cc1` (stereo not given), which activity change, negative = inhibition is on record?
The activity change, negative = inhibition was active: -63%.

Which activity change, negative = inhibition does the source give for `Fc1cc(F)cc(Nc2nc(Cl)nc(NC3CCCC3)n2)c1` here?
The activity change, negative = inhibition was inactive: -5.58%.

For `CCn1ncc(S(=O)(=O)Nc2cc(Cl)ccc2C)c1C`, which activity change, negative = inhibition is on record?
Its activity change, negative = inhibition is inconclusive: -52.9%.

With `Cc1ccc(S(=O)(=O)N2CCCC(C(=O)Nc3ccc(C(=O)O)cc3)C2)cc1Cl` (stereo not given) as the compound, how does the activity change, negative = inhibition read?
Its activity change, negative = inhibition is inconclusive: -47.5%.

For `Fc1ccc(-n2cc(-c3ccccc3)c3c(NC4CCCCC4)ncnc32)cc1`, which activity change, negative = inhibition is on record?
The activity change, negative = inhibition was inactive: 6.78%.

With `Nc1nc(Nc2cccc(Cl)c2)nc(NCc2ccco2)c1[N+](=O)[O-]` as the compound, how does the activity change, negative = inhibition read?
The activity change, negative = inhibition was inactive: 40.1%.

With `Cc1ccc(C)c(C(=O)NCCN(C)C)c1` as the compound, how does the activity change, negative = inhibition read?
Its activity change, negative = inhibition is inactive: 59.6%.

Which activity change, negative = inhibition does the source give for `Cn1c(Oc2ccncc2)nc2cc(-c3ccsc3)sc2c1=O` here?
The activity change, negative = inhibition was inconclusive: -57.5%.

With `N#Cc1ccccc1Cn1cc(C(=O)c2ccccc2F)c2ccccc21` as the compound, how does the activity change, negative = inhibition read?
Its activity change, negative = inhibition is inconclusive: -47.1%.

Which activity change, negative = inhibition does the source give for `C=C(C)Cn1c(=O)c2c(nc3n2CCN3c2ccc(CC)cc2)n(C)c1=O` here?
The activity change, negative = inhibition was inconclusive: -45.3%.

With `COc1ccc(NC(=O)c2cc3c(s2)-c2c(C)cccc2OC3)c(OC)c1` as the compound, how does the activity change, negative = inhibition read?
Its activity change, negative = inhibition is inactive: -21.4%.

With `CSc1nc2ccccc2c(=O)n1C1CCCCC1` as the compound, how does the activity change, negative = inhibition read?
The activity change, negative = inhibition was inconclusive: -51.9%.

Which activity change, negative = inhibition does the source give for `CN1CCN(C(=O)C(=O)c2cn(CC(=O)N3CCOCC3)c3ccccc23)CC1` here?
Its activity change, negative = inhibition is inconclusive: -41%.

Which activity change, negative = inhibition does the source give for `Cc1ccccc1-n1c(-c2ccoc2)nc2ccccc2c1=O` here?
Its activity change, negative = inhibition is inconclusive: -52.5%.

With `O=C(NCC1CCS(=O)(=O)C1)Oc1ccccc1` (stereo not given) as the compound, how does the activity change, negative = inhibition read?
The activity change, negative = inhibition was active: -95.4%.

Which activity change, negative = inhibition does the source give for `Cc1cc(C)cc(C(=O)NC(=S)Nc2ccc(-c3cc4ccccc4oc3=O)cc2)c1` here?
The activity change, negative = inhibition was inconclusive: -48%.

With `CCOC(=O)CCCc1ccc(/C(C)=N/NC(=S)NC)cc1` as the compound, how does the activity change, negative = inhibition read?
The activity change, negative = inhibition was active: -95%.

For `COc1cccc(/C=N/NC(=O)c2cc3c(OC)c(OC)ccc3[nH]2)c1OC`, which activity change, negative = inhibition is on record?
The activity change, negative = inhibition was inactive: 83.6%.

Which activity change, negative = inhibition does the source give for `CCCNc1nc(NCC)nc(OC)n1` here?
Its activity change, negative = inhibition is inconclusive: -54.6%.

For `COC(=O)N/N=C/c1ccc(OC(=O)/C=C/c2ccco2)cc1`, which activity change, negative = inhibition is on record?
The activity change, negative = inhibition was inactive: -34.2%.

For `COc1ccccc1-n1cnnc1SCC(=O)NCC1CCCO1` (stereo not given), which activity change, negative = inhibition is on record?
Its activity change, negative = inhibition is inconclusive: -40.3%.

Which activity change, negative = inhibition does the source give for `O=c1cc(CN2CCN(c3ccccc3)CC2)nc2scc(-c3ccccc3)n12` here?
Its activity change, negative = inhibition is inactive: 24.9%.

For `CSCCC(=O)N1CCCC(CNC(=O)c2ccc(-c3ccccc3)cc2)C1` (stereo not given), which activity change, negative = inhibition is on record?
The activity change, negative = inhibition was inactive: -29.8%.

Which activity change, negative = inhibition does the source give for `O=C(CC1Sc2ccc(C(F)(F)F)cc2NC1=O)Nc1ccc(Cl)c(C(F)(F)F)c1` (stereo not given) here?
Its activity change, negative = inhibition is inconclusive: -44%.

Which activity change, negative = inhibition does the source give for `COc1cc2c(cc1OC)C(C)=NCC2` here?
The activity change, negative = inhibition was inactive: 0%.

For `O=C1CN(C(=S)NC(=O)c2ccccc2[N+](=O)[O-])CCN1`, which activity change, negative = inhibition is on record?
Its activity change, negative = inhibition is inactive: -18.3%.

For `OCCC1CN(Cc2cnc(-c3ccc(Cl)cc3)nc2)CCN1C1CCCCC1` (stereo not given), which activity change, negative = inhibition is on record?
Its activity change, negative = inhibition is inconclusive: -50.7%.

Which activity change, negative = inhibition does the source give for `CC(C)C(=O)N1CCN(c2nc(-c3ccccc3)c3c(c2C#N)CCCC3)CC1` here?
Its activity change, negative = inhibition is inconclusive: -55.6%.

For `Cc1ccc(C)c(NC(=O)CN(C)C(=O)c2ccc(-c3cccc(C(F)(F)F)c3)o2)c1`, which activity change, negative = inhibition is on record?
Its activity change, negative = inhibition is inconclusive: -43.4%.

Which activity change, negative = inhibition does the source give for `CSc1nc(C)c(Br)c(N2CC2)n1` here?
The activity change, negative = inhibition was inconclusive: -44.3%.

With `Cc1ccc(NC(=O)c2sc3nc(-c4cc5ccccc5oc4=O)[nH]c(=O)c3c2C)c(C)c1` as the compound, how does the activity change, negative = inhibition read?
Its activity change, negative = inhibition is inactive: 16.3%.

Which activity change, negative = inhibition does the source give for `Cn1c(=O)c2c(nc(NNC(=O)C(F)(F)F)n2C)n(C)c1=O` here?
The activity change, negative = inhibition was inconclusive: -43%.

With `CC1CCC2(CC1)NC(=O)N(NC(=O)c1cc3ccccc3o1)C2=O` (stereo not given) as the compound, how does the activity change, negative = inhibition read?
The activity change, negative = inhibition was inconclusive: 0%.
